Primary screen of a compound library

Mtb glucose medium: 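Whole-cell growth test on Mycobacterium tuberculosis, read after 3 days in glucose-containing 7H9 medium; the read-out is not stated. Concentration: 50 µM. Higher reads as more growth inhibition (inferred: compounds with an IC50 in retests scored well above the rest). Size under these conditions: about 69,000 compounds, about 760 of them at 50% or above in at least one test.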
Mtb cholesterol medium: 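Whole-cell growth test on Mycobacterium tuberculosis, read after 4 days in a medium based on cholesterol and the lipid DPPC; the read-out is not stated. Concentration: 50 µM. Direction is inferred from retests: higher values go with more growth inhibition. Size under these conditions: about 69,000 compounds, about 370 of them at 50% or above in at least one test.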

Values are the deposited “Percent Effect”, in %.
The record does not define 0% and 100%; most values in the screen are far below 50% and negative numbers occur (in some assays of this library far below -100).
This is an unselected part of the compounds tested.
Two or more numbers in one place are separate tests of the same structure; such repeats can differ widely.

| structure | Mtb glucose medium | Mtb cholesterol medium |
|---|---|---|
| `O=C(CN1CCCC1c1nc(Cc2ccc(F)cc2)no1)NC1CC1` (stereo unspecified) | 22.53% & 0.8404% | 10.25% |
| `CCn1ccc(C(=O)Nc2ccc3c(c2)C(C)(C)C(=O)N3C)n1` | 41.69% | 7.911% |
| `COc1ccc(C2CCCN2C(=O)NCCNc2ncccn2)cc1` (stereo unspecified) | -7.741% & -28.68% | -35.93% |
| `CCN(CC)Cc1ccccc1NC(=O)N(C)Cc1ccccc1O` | -6.754% | 0.6574% & 0.6212% |
| `O=C1N(Cc2cccc(F)c2F)CCCC1(O)CN1CCCOCC1` (stereo unspecified) | 32.39% | -3.599% |
| `O=C(O)[C@@H]1CN(C(=O)c2ccc3[nH]nnc3c2)C[C@H]1c1ccccc1` | 1.023% | 12.78% |
| `CCN(Cc1cccc(C)c1)Cc1nc2c(cnn2C)c(=O)[nH]1` | -3.695% | -2.59% |
| `O=C(C1CCOC1)N1CCC2(CC1)COC2` (stereo unspecified) | 16.97% | 9.232% |
| `[H][C@@]12C[C@H](C(=O)Nc3cccnc3)[C@@]([H])(CN(S(=O)(=O)N(C)C)C1)O2` | -18.91% | 17.06% & -13.27% |
| `O=C(NCC(CO)Cc1cccc(OC(F)(F)F)c1)c1cnccn1` (stereo unspecified) | 5.982% | 24.79% |
| `CC(OCC1CC1)C(=O)Nc1cccc(C(=O)Nc2ccccn2)c1` (stereo unspecified) | 24.51% | 12.28% |
| `CCN(CC1CCCO1)S(=O)(=O)c1cc(NC(C)=O)ccc1C` (stereo unspecified) | 0.3229% & 0.156% | -3.81% & -1.584% |
| `CCN(C)C(=O)C1(c2ccc(F)cc2F)CCC1` | -19.09% | -16.21% |
| `O=C(O)C(F)(F)F.[H][C@]12CCN(c3ncccn3)[C@@]1([H])CC[C@@H](COCC(=O)N(C)C)O2` | -3.909% | -8.787% |
| `Cn1cc(C2CCCN2CCCn2c(=O)oc3ccccc32)cn1` (stereo unspecified) | 18.41% | -0.3644% |
| `N#Cc1ccc(C(=O)N2CCn3c(Cn4cccn4)cnc3C2)cc1.O=C(O)C(F)(F)F` | -13.64% | -14.16% |
| `COCCN1CCN(S(=O)(=O)C2CC2)Cc2cccnc21` | 20.07% | 7.673% |
| `Cc1ccc(C2CCCN2S(=O)(=O)N(C)Cc2cnccn2)o1` (stereo unspecified) | -4.5% | -1.718% |
| `COc1ccc(-c2noc([C@@H](C)NC(=O)CC(C)C)c2C(=O)O)cc1` | -6.331% & -3.902% | -18.3% |
| `CC(C)c1nc(S(=O)(=O)N2CCSc3ccccc32)c[nH]1` | -5.226% & -2.149% | -1.797% |
| `CC(C)N1CC2(CCCN(c3ccccn3)C2)CCC1=O` (stereo unspecified) | -28.96% | 20.56% |
| `COc1ccc(C(=O)N(C)Cc2cc(C)on2)c(OC)c1` | -2.598% | -1.362% |
| `Cc1ncsc1C(=O)N1CCCCC1c1cc2nc(C)c(C)c(O)n2n1` (stereo unspecified) | 5.659% | 0.9957% |
| `c1cnc(Nc2cc(CCC3CCNCC3)ccn2)cn1` | 1.834% | 1.029% |
| `C=C(C)CNC1CCCN(Cc2noc(C3CC3)n2)C1` (stereo unspecified) | -15.53% & 4.801% | -16.88% |
| `[H][C@@]12CCN(C(C)=O)[C@]1([H])C(=O)N(Cc1ccccc1)C(=O)N2` | -44.87% & -12.09% | -4.862% |
| `O=C(O)C(F)(F)F.O=S(=O)(c1cccs1)N1Cc2nc(CN3CCCCC3)oc2C1` | -9.152% | -8.375% |
| `O=C(NC[C@H]1OC[C@@H](NC2CCC2)[C@@H]1O)Nc1ccccc1` | -34.9% & -3.746% | -30.59% |
| `Cn1c(CN2CCOC(CCc3ccncn3)C2)nc2ccccc21` (stereo unspecified) | 6.694% | 5.355% |
| `Cc1nc(N2CCN(C)CC2)ncc1C(=O)N1CC[C@](C)(O)[C@H](C)C1` | 8.947% | 6.205% |
| `CCSc1nnc(CCNC(=O)OC(C)(C)C)o1` | -11.03% | -16.01% |
| `COc1ccc(S(=O)(=O)NCCC(=O)NCc2ccoc2)cc1OC` | 2.746% | -8.653% & -14.34% |
| `O=S(=O)(N1CCC(n2cccc2)CC1)N1CCCC1c1ccco1` (stereo unspecified) | 9.94% & 14.89% | 1.15% |
| `[H][C@]12CN(C(=O)NC(C)C)CCN1C(=O)N(CCOC)C2` | -0.9242% & -27% | 11.95% |
| `CC(NC(=O)NCCCN1CCCC1=O)c1nncn1C` (stereo unspecified) | -25.46% & -6.023% | -10.77% |
| `Cc1cc(C(F)(F)F)nc(CNc2nc(C)nc3c2cnn3C)n1` | -5.058% | 0.3363% |
| `Cc1noc(C)c1-c1cncc(CC2CCN(C(=O)c3cc[nH]n3)C2)n1` (stereo unspecified) | 20.67% | -7.155% |
| `O=C(O)C(F)(F)F.[H][C@@]12CCCO[C@]1([H])[C@H](NS(C)(=O)=O)CN2C(=O)c1ccccn1` | -8.368% | -1.138% |
| `CCn1cc(S(=O)(=O)NCC(OC)c2cccc(Cl)c2)cn1` (stereo unspecified) | 27.88% | 26.02% |
| `COc1ccc(OC)c(-n2c(COC(C)C)n[nH]c2=O)c1` | 5.103% & -0.4267% | -9.074% & 19.76% |
| `COc1ccc2nnc(CCCC(=O)Nc3nc4c(s3)CCC4)n2n1` | -11.67% | -14.28% |
| `Cc1cc(OCC(=O)N2CCCC2c2noc(C)n2)no1` (stereo unspecified) | 14.01% | 2.368% |
| `Cn1cccc1C(=O)N1CCC2(CC1)CN(S(C)(=O)=O)c1ccccc12` | -7.983% | -12.2% |
| `CN(CCc1cccs1)CCc1nccs1` | 2.576% | 15.22% |
| `Clc1ccc(CNc2cnn(CCN3CCOCC3)c2)cc1Cl` | 1.248% | 14.73% |
| `Cc1nn(CC(C)C)c(C)c1CC(=O)N1CCCC(NS(C)(=O)=O)C1` (stereo unspecified) | 5.887% | 1.501% |
| `CN(CC(=O)NC(c1ccc(F)cc1)C(F)(F)F)S(C)(=O)=O` (stereo unspecified) | 7.534% | -22.95% |
| `Cc1nc(N)sc1C(=O)N[C@H]1CN(CCO)C[C@@H]1C1CC1` | -6.868% | -6.694% |
| `CCN(CC)C(=O)[C@@H]1C[C@H](N)CN1c1noc(-c2ccccc2)n1` | -1.317% & 20.95% | 11.2% |
| `Cc1cc(CNc2ccc3nc(C)sc3c2)no1` | 20.2% & 0.5428% | 0.4344% |
| `Cc1noc(CN(C)c2nc(-c3ccco3)nc3c2CCN(C)CC3)n1` | 4.597% | -5.443% |
| `Cc1csc(N2CCCN(C(=O)Cc3ccc(C)s3)CC2)n1` | -19.19% | -39.89% |
| `Cc1nc(CN2CCCN(c3nccs3)CC2)no1` | -52.53% | -17% |
| `CNC(=O)CN1CCN(C(=O)Nc2ccc(C)s2)CC1` | -6.821% | -24.68% |
| `Cl.O=C(Nc1nc2c(s1)CNCC2)C1CC1` | -52.04% | -27.59% |
| `Cc1cc(CN[C@@H](Cc2ccccc2)C(N)=O)c(C)s1` | 11.93% & 6.053% | 11.08% & 24.93% |
| `CCCn1ccnc1-c1cccc(NC(=O)C2CCCOC2)c1` (stereo unspecified) | 1.937% | 8.697% |
| `CCN1CC2(CC1=O)CN(C(=O)c1ccoc1)CCN(C(=O)N(C)C)C2` (stereo unspecified) | -6.931% | -1.516% |
| `Cc1noc(C2(C)CCCN(C(=O)c3cnn(C)c3)C2)n1` (stereo unspecified) | -10.64% | 6.101% |
| `CCc1ccc(CN2CCC3(CC2)CN(c2cnn(C)c2)C(=O)CO3)o1.O=C(O)C(F)(F)F.O=C(O)C(F)(F)F` | 15.07% | -5.279% |
| `Cc1ccc2cc(C(=O)N3CCS(=O)(=O)CC3)[nH]c2c1` | -2.055% | -1.06% |
| `Cc1nc(CNCc2cccc(OC34CCCN(CC3)C4)c2)n[nH]1` (stereo unspecified) | 9.222% | 14.54% |
| `CCCN(CCC)C(=O)c1cc(CN2CCC(O)CC2)on1` | 38.24% | 9.406% |
| `COCCn1cc(C(=O)Nc2nc3c(s2)CCC3)c2ccccc21` | 23.97% | 21.42% |
| `Cc1ccc2c(c1)SCC(=O)N2CC(=O)N1CCCC1c1nccs1` (stereo unspecified) | -6.418% | -3.007% & -0.5674% |
| `O=C(O)C(F)(F)F.[H][C@@]12OCCN(C(=O)COc3ccccc3)[C@@]1([H])CC[C@H]2OCCN(C)C` | -27.88% | 3.374% |
| `Cc1cc(NC(=O)Nc2ccc3c(ccn3CCN(C)C)c2)n(C)n1` | 27.49% | -8.004% |

Once more, the final 4:

{"structure": "COCCn1cc(C(=O)Nc2nc3c(s2)CCC3)c2ccccc21", "Mtb glucose medium": 23.97, "Mtb cholesterol medium": 21.42}
{"structure": "Cc1ccc2c(c1)SCC(=O)N2CC(=O)N1CCCC1c1nccs1", "stereo": "stereo unspecified", "Mtb glucose medium": -6.418, "Mtb cholesterol medium": "-3.007 & -0.5674"}
{"structure": "O=C(O)C(F)(F)F.[H][C@@]12OCCN(C(=O)COc3ccccc3)[C@@]1([H])CC[C@H]2OCCN(C)C", "Mtb glucose medium": -27.88, "Mtb cholesterol medium": 3.374}
{"structure": "Cc1cc(NC(=O)Nc2ccc3c(ccn3CCN(C)C)c2)n(C)n1", "Mtb glucose medium": 27.49, "Mtb cholesterol medium": -8.004}

The values are deposited in ChEMBL (CHEMBL3988442, “University of Dundee, Small-Polar-MMV Screening Library” (2021)).